Test results taken from doi:10.1101/2023.07.11.548599.
These are yes or no findings as the source states them, for the method shown. In cells and extracts the contact can be indirect. Here binding means that the protein was enriched with, or labelled near, the bait; the list need not be complete. For some of these results: Where a sequence is shown, tags or fusion partners need not be part of it.

Amino acid sequences for entries named in this document (tags omitted). A change or cut given only in a name is not applied to a line headed by its entry.
UniProt A1ZBF8: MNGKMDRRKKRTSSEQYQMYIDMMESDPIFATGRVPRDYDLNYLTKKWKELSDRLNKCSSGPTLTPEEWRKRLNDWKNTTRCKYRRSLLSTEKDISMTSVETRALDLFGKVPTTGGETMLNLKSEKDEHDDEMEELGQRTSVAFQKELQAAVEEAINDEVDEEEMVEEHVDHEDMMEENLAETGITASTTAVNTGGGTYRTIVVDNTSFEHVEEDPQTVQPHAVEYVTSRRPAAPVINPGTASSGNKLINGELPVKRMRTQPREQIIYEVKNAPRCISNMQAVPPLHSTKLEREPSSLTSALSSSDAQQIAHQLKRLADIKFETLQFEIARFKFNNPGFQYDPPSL
UniProt Q9U9Q1: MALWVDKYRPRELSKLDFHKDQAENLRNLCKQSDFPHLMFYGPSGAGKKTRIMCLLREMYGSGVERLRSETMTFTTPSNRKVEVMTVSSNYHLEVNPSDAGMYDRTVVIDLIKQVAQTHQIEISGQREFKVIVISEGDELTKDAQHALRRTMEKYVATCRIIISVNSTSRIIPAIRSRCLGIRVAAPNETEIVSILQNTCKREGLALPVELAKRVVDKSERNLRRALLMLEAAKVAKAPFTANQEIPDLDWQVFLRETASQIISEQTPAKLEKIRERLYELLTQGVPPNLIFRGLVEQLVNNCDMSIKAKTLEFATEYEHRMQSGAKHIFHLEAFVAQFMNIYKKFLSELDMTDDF
UniProt Q9W3W6: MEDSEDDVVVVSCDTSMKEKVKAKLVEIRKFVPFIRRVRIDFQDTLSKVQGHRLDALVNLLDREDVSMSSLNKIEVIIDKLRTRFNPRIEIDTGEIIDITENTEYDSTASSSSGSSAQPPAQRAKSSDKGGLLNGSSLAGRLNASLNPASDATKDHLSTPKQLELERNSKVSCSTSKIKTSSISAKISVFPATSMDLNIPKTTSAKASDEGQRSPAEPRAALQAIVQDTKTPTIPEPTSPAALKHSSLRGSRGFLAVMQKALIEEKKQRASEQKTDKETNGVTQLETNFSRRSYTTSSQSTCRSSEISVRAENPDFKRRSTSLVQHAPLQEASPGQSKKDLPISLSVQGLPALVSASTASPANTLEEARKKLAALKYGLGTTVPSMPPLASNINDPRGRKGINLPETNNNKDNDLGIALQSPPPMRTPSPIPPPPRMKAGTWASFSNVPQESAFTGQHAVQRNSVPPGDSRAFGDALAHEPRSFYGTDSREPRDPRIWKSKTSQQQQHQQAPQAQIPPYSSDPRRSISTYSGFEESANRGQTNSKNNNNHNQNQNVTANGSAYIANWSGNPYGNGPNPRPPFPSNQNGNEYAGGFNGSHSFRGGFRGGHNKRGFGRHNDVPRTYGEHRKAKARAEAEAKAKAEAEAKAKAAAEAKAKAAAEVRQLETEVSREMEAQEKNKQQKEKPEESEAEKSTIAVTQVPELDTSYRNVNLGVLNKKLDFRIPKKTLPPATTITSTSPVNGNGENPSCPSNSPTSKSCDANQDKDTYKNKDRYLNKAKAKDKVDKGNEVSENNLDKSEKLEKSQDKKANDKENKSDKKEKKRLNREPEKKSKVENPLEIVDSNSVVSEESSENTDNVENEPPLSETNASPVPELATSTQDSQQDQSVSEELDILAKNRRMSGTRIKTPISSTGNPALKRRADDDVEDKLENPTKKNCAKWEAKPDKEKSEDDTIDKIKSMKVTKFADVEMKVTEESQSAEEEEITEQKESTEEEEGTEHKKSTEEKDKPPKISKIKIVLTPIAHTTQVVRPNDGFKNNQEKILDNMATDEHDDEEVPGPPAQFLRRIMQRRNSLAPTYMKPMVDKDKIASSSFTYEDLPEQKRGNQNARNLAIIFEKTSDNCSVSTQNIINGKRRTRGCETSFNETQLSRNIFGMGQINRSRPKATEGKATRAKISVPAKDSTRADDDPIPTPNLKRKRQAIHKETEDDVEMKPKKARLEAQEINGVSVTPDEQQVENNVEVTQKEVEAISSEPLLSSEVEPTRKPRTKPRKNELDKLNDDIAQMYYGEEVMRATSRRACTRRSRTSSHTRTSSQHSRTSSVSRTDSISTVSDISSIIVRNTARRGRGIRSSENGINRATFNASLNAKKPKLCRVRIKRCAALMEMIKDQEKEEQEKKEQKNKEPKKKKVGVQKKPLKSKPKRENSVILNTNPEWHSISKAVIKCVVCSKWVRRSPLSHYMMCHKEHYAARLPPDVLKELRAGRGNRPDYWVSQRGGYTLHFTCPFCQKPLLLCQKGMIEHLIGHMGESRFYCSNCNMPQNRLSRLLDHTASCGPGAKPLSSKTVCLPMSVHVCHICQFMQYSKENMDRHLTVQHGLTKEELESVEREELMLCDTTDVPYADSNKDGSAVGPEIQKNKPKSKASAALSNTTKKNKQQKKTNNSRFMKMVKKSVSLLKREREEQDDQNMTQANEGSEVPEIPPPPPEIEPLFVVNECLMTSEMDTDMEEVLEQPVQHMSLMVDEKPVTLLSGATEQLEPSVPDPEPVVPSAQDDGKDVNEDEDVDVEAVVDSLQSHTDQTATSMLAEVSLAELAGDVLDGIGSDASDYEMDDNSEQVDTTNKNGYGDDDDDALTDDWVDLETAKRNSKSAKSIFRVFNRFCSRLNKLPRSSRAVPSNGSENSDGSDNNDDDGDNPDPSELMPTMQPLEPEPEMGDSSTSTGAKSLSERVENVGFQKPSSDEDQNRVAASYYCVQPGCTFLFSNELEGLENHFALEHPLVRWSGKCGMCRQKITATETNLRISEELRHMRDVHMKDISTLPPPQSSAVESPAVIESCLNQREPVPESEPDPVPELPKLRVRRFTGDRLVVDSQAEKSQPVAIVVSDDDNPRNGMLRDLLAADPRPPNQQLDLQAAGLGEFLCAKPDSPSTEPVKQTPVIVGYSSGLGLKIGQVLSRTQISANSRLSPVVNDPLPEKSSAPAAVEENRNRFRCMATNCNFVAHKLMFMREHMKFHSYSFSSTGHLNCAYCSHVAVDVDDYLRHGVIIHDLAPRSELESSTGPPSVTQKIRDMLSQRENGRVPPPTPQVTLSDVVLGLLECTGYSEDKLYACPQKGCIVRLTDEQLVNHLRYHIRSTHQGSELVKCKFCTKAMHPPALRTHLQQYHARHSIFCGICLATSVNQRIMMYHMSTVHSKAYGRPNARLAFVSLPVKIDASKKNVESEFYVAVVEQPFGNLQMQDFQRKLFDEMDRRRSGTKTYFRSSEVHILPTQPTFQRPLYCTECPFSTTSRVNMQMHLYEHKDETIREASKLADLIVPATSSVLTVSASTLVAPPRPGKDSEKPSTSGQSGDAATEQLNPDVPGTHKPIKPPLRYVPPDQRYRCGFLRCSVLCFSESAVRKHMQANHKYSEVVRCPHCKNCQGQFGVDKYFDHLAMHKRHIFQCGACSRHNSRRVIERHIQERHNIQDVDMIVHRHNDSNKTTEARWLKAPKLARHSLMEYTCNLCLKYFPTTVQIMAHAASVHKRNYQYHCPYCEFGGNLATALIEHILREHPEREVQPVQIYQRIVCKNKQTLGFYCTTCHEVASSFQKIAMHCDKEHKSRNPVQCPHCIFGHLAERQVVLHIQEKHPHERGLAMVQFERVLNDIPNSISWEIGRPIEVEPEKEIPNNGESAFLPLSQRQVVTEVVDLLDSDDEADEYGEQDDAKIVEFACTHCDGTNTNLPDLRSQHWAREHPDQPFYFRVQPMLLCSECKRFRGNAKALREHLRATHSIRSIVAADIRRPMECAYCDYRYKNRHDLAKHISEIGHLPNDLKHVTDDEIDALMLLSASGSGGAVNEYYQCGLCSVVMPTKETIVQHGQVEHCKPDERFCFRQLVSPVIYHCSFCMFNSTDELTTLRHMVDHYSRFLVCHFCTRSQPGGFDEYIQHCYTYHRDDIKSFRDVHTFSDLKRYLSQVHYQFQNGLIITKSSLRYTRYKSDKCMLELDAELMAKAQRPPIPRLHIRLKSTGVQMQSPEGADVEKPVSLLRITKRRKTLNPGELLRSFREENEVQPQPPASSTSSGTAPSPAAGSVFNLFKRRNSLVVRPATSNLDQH
UniProt P45975: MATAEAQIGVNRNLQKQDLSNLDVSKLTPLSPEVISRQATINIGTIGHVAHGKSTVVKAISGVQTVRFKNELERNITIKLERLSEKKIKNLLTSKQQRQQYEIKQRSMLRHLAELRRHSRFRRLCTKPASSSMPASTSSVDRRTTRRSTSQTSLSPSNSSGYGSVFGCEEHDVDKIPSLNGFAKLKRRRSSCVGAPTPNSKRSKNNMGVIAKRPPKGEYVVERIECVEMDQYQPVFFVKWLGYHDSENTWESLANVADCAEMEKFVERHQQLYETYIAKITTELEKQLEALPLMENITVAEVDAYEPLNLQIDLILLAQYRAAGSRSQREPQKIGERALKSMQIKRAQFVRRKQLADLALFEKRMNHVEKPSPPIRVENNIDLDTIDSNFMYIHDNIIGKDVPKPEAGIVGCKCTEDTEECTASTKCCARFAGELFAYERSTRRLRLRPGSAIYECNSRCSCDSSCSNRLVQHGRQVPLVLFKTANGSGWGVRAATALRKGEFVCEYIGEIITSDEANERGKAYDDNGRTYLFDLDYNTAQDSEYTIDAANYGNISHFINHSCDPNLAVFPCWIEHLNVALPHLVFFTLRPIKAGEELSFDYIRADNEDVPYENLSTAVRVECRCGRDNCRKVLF

T1: GFP-D1 (D. melanogaster) (UniProt P22058)
T1 sequence: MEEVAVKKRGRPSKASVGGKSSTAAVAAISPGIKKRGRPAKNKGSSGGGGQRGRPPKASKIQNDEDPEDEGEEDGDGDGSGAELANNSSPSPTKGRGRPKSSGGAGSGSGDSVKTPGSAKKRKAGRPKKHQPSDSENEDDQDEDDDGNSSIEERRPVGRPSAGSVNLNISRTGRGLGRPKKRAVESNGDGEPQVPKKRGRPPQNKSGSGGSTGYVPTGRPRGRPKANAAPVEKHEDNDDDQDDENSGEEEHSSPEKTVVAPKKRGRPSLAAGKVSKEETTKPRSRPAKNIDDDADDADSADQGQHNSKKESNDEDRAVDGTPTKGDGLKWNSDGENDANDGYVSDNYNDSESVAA

B1: ball (protein, UniProt Q7KRY6 1-599)
chain: MPRVAKPKAAAPAKKVVSAKKAKSKLYKMPEKVKEGTVFTDLAKGQWRIGPSIGVGGFGEIYAACKVGEKNYDAVVKCEPHGNGPLFVEMHFYLRNAKLEDIKQFMQKHGLKSLGMPYILANGSVEVNGEKHRFIVMPRYGSDLTKFLEQNGKRLPEGTVYRLAIQMLDVYQYMHSNGYVHADLKAANILLGLEKGGAAQAYLVDFGLASHFVTGDFKPDPKKMHNGTIEYTSRDAHLGVPTRRADLEILGYNLIEWLGAELPWVTQKLLAVPPKVQKAKEAFMDNIGESLKTLFPKGVPPPIGDFMKYVSKLTHNQEPDYDKCRSWFSSALKQLKIPNNGDLDFKMKPQTSSNNNLSPPGTSKAATARKAKKIDSPVLNSSLDEKISASEDDEEEEEKSHRKKTAKKVTPSARNAKVSPLKRVADSSPPSQKRVKTEPKSTPRERATPKASPKPRSTPKASPKPQTPTAARLRTPNAKINFSPSISLRGRPGGKTVINDDLTPQPRSKKTYEFNFELDVSMDANVIVNVKRKKKADQDKATAVDSRTPSSRSALASSSKEEASPVTRVNLRKVNGHGDSSTPGRSPRTPAVTVRKYQG
B2: Smn (protein, UniProt Q9VV74 1-226)
chain: MSDETNAAVWDDSLLVKTYDESVGLAREALARRLADSTNKREEENAAAAEEEAGEISATGGATSPEPVSFKVGDYARATYVDGVDYEGAVVSINEEKGTCVLRYLGYENEQEVLLVDLLPSWGKRVRREQFLIAKKDEDEQLSRPKASAGSHSKTPKSSRRSRISGGLVMPPMPPVPPMIVGQGDGAEQDFVAMLTAWYMSGYYTGLYQGKKEASTTSGKKKTPKK
B3: bocks (protein, UniProt Q709R6 1-399)
chain: MSDLSYLDTLGNKELLAKCLEHGLPGVPVTDSTRSVIIRRLKAKITGVPLNKSKSASKKAIPRRETVHGSQVTTPTSEPVRRTPGKSAGRTSSNNNKISEQSRRTIAYGLDNTSISGRSVQTTTTVSDMSSQSEDDDSYMVDSPVPNYSKDQQPRRYVSLAKSGVLTTSYTREVDQPLYEQEDIPRSYTYERPHVPAATLHALPTYEPRIEPSTYRPTDLGFSRPLLTQTNLNSTSYEESSTYNPKLSPISPRNTFSGSARPFGGPAPAPAPIRQRQSVPVSGSNLARGRLLQPTTAVNTLYPQLNEFYDQPNDAGEPMETESESEVEEVPINSHFQKNRFSPLARKPLVRHHDQVSPMAQFRALAVSLDQKYNLKFYLILVVSVMLATMVYVVLTPNA
B4: Top2 (protein, UniProt P15348 1-1447)
chain: MENGNKALSIEQMYQKKSQLEHILLRPDSYIGSVEFTKELMWVYDNSQNRMVQKEISFVPGLYKIFDEILVNAADNKQRDKSMNTIKIDIDPERNMVSVWNNGQGIPVTMHKEQKMYVPTMIFGHLLTSSNYNDDEKKVTGGRNGYGAKLCNIFSTSFTVETATREYKKSFKQTWGNNMGKASDVQIKDFNGTDYTRITFSPDLAKFKMDRLDEDIVALMSRRAYDVAASSKGVSVFLNGNKLGVRNFKDYIDLHIKNTDDDSGPPIKIVHEVANERWEVACCPSDRGFQQVSFVNSIATYKGGRHVDHVVDNLIKQLLEVLKKKNKGGINIKPFQVRNHLWVFVNCLIENPTFDSQTKENMTLQQKGFGSKCTLSEKFINNMSKSGIVESVLAWAKFKAQNDIAKTGGRKSSKIKGIPKLEDANEAGGKNSIKCTLILTEGDSAKSLAVSGLGVIGRDLYGVFPLRGKLLNVREANFKQLSENAEINNLCKIIGLQYKKKYLTEDDLKTLRYGKVMIMTDQDQDGSHIKGLLINFIHTNWPELLRLPFLEEFITPIVKATKKNEELSFYSLPEFEEWKNDTANHHTYNIKYYKGLGTSTSKEAKEYFQDMDRHRILFKYDGSVDDESIVMAFSKKHIESRKVWLTNHMDEVKRRKELGLPERYLYTKGTKSITYADFINLELVLFSNADNERSIPSLVDGLKPGQRKVMFTCFKRNDKREVKVAQLSGSVAEMSAYHHGEVSLQMTIVNLAQNFVGANNINLLEPRGQFGTRLSGGKDCASARYIFTIMSPLTRLIYHPLDDPLLDYQVDDGQKIEPLWYLPIIPMVLVNGAEGIGTGWSTKISNYNPREIMKNLRKMINGQEPSVMHPWYKNFLGRMEYVSDGRYIQTGNIQILSGNRLEISELPVGVWTQNYKENVLEPLSNGTEKVKGIISEYREYHTDTTVRFVISFAPGEFERIHAEEGGFYRVFKLTTTLSTNQMHAFDQNNCLRRFPTAIDILKEYYKLRREYYARRRDFLVGQLTAQADRLSDQARFILEKCEKKLVVENKQRKAMCDELLKRGYRPDPVKEWQRRIKMEDAEQADEEDEEEEEAAPSVSSKAKKEKEVDPEKAFKKLTDVKKFDYLLGMSMWMLTEEKKNELLKQRDTKLSELESLRKKTPEMLWLDDLDALESKLNEVEEKERAEEQGINLKTAKALKGQKSASAKGRKVKSMGGGAGAGDVFPDPDGEPVEFKITEEIIKKMAAAAKVAQAAKEPKKPKEPKEPKVKKEPKGKQIKAEPDASGDEVDEFDAMVEGGSKTSPKAKKAVVKKEPGEKKPRQKKENGGGLKQSKIDFSKAKAKKSDDDVEEVTPRAERPGRRQASKKIDYSSLFSDEEEDGGNVGSDDDGNASDDDSPKRPAKRGREDESSGGAKKKAPPKKRRAVIESDDDDIEIDEDDDDDSDFNC
B5: mei-S332 (protein, UniProt Q24141 1-401)
chain: MGSKVEQQYKLLNAELMDQVQKQRLEIGEYRKRVISLEREIMDIREEHVLQNHRQRMENISIVRSLMLSLNVDSDSLAVRQEPAPAAQINRPSGPRRSSREICKDMRRTCALARTTRPISPRRSSSVTSTVSSTSRRSSAEVQSEVVTTRIPEDRRANKPTPPPRRPAELVFDEDDSDDDFDEAVSPVEETQTEQNEENNRLFSIIEENGSEGESTDSSSSCEAIYCDTTFESSPPNAQVTVTPSGRALREVDTNIPVAVSLSRGKETGKGSWLAISVAVEDSPQEPSIQCPRLAVTRPSQSSGIFPDVNGLTPRRSLFNGIGKMAGSTSTPKSFLVEEMPSIRTRSRTAANKKSENTDMSSSFCNNSARPSRSCRPTSLVEPSLKNKLRNGSKGKAKAKK
B6: Mes-4 (protein, UniProt Q8MT36 1-1427)
chain: MKLSTDAHSEIEGDAAHGNVLCNSASDSLTATDEVAAGNDESVATEGDDVEIPRDTNNSTPVRLLDKPGQNPVQNGAQPAAEESELESQRQTPVQKQQQQRVSMVNRKRDLINLQSALSPKYIGYANANSPTPLSDSDDTIRTTRRRVNQAAALNNSSAGETLAHDNASPRTPGGGGGGGGDDSANQLLSKTYMSPIEKLLIKNGASSPNSTGFEAGSEDLGIRPIVRKHVKRKMKRVPKAKVTLELDEKNQQEVDEKSVKTEPIDEEVDRTDEAPTQEAQTTAISIKSETEAEHKAAVDVHIKQEDTIRLDIVNNPVESTSIVITEEPKDLEKSTEELAFALPLASSTEVDLKSPPDLSSTALATSIKSPSSVSIDSAKGLSIVTDPGWPTYQVGDLFWGKVFSYCFWPCMVCPDPLGQIVGNMPSHPQRSSLDNANVPIQVHVRFFADNGRRNWIKPENLLTFAGLKAFDDMREELRIKHGPKSAKYRQMVPKRTKVVIWRQAIEEAQAMTQIPYSDRLEKFYQTYENVVTLNRQKRKRTKYMMQDTSDVGSSLYDSTDNLHNKQGTQLLAVKRERSESPFSPAFSPVKSKNEKRAKRRKLSNGTEADTGSNSMAVTPSQTETTVDSSAYENPEFRQLLSAVMEYVMMNRSDEKVEKVLLSVVSNIWSLKQIQLRELERDLASGEIEEPLGSSVVGRGSGVGTIKRLSNRLMTMMVRRSMTPVVTPSTTPAPSEPDRRLSEPPKTKKPVNRPIEEVIEDILQLDSKYLFRGLSREPICKYCYQAGSDLVRCSRTCSSWLHADCLERKVTGAPMPKIGSRKALVIPPTSKSPSPDEDHVTADAKEVVAVGTSLVCHECNVGEPEGCVICHQVESPAVPSTPRKEDSSSHTPIEDKLLTCSQPMCGKRFHTSCCKYWPQASSSKHSARCPRHVCHTCVSDDPSGKFQQLGSSKLAKCVRCPATYHQLSKCIPAGTQMLNTTNIICPRHNIAKADAHVNVLWCYICVKGGELVCCETCPIAVHAHCRNIPIKTNESYICEECESGRLPLYGEIVWAKFNNFRWWPAIILPPTEVPSNILKKAHGENDFVVRFFGTHDHGWISRRRVYLYIEGDTGDGHKTKSQLFRNYTTGVEEASRFLPIIKARRQEQDMERQSGNKLHPPPYVKIKTNKAVPPLRFSQNLEDLSTCNCLPVDEHPCGPEAGCLNRMLFNECNPEYCKAGSLCENRMFEQRKSPRLEVVYMNERGFGLVNREPIAVGDFVIEYVGEVINHAEFQRRMEQKQRDRDENYYFLGVEKDFIIDAGPKGNLARFMNHSCEPNCETQKWTVNCIHRVGIFAIKDIPVNSELTFNYLWDDLMNNSKKACFCGAKRCSGEIGGKLKDDAVKAHAKLKQMRRAKASAVRIHVKPKKTPKVKHISADDEPMDAKDE
B7: borr (protein, UniProt Q9VLD6 1-315)
chain: MPRTKIPKNSKRNREVANREEKVRLYELKMDSRLISIDSLETKFLSAVDHQVKTLLGQVQKELANLKMPEVLRLFEELDRFSDFKASDQTQLLASMSMSGSAIEGHAPSATGSRNDEEDSSIGASGGSILAAHTGSLLRSTKAMRTPGPLHSARARRARRSRSACGDLNILHSAKPPSISSSSSSSRNSRSKLRTPMASRAKAFSADRTPLKQKQMRSGSPTTPPMAFLRYPKPGEVALSKYGSPMVAQVMPDKFANVNIPIRNGVLSLRPKKLDADEVESNLLENLDEDTLNQIKTLHENLQMIVNKASQAVFK

Assays:
GFP-D1 (D. melanogaster) = target: T1, GFP-D1 (D. melanogaster); assay: affinity purification with mass spectrometry
[1] = target: GFP-Prod (D. melanogaster) (UniProt A1ZBF8); assay: affinity purification with mass spectrometry

| Molecule | binding (GFP-D1 (D. melanogaster)) | binding [1] |
| --- | --- | --- |
| HP5 (D. melanogaster (endogenous in embryos)) | binds |  |
| Hybrid male rescue (Hmr) (D. melanogaster (endogenous in embryos)) | binds |  |
| Parp (D. melanogaster (endogenous in embryos)) | binds |  |
| ADD1 (D. melanogaster (endogenous in embryos)) | binds |  |
| Incenp (D. melanogaster (endogenous in embryos)) | binds |  |
| RfC38 (from UniProt Q9U9Q1) | binds |  |
| small ovary (Sov) (from UniProt Q9W3W6) | binds |  |
| Lethal hybrid rescue (Lhr) (D. melanogaster (endogenous in embryos)) | binds |  |
| Su(var)3-9 (from UniProt P45975 1-635) | binds |  |
| B1 | binds |  |
| B2 | binds |  |
| B3 |  | binds |
| B4 | binds |  |
| B5 | binds |  |
| B6 | binds |  |
| B7 | binds |  |
